# Source: the supplement of paper PMC10735217
# Counter-ions that a name gives are not always drawn. The list shows a part of the results. Single values are uncertain here, since repeats match poorly.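 The human kidney-derived cells carry a stably integrated construct of eight TEAD-binding elements driving luciferase, read by luminescence in a drug-repurposing library screen. A compound counts as a hit when its signal is more than five robust Z scores above the plate mean.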
# System: HEK293A TEAD-LUC reporter
# Experiment: TEAD-luciferase reporter activity (YAP activation), robust Z score vs plate; higher = stronger YAP/TEAD activation
# Conditions: 24 h
Structure (SMILES),TEAD-luciferase reporter activity (compound concentration: 200 nM),TEAD-luciferase reporter activity (compound concentration: 10 uM),TEAD-luciferase reporter activity (compound concentration: 2 uM)
O=C(NCC1CC1)C1CCCN(c2nc3ncccc3o2)C1 (configuration not stated),inactive: 0.881,inactive: -0.767,–
CC[C@H](C)[C@@H]1NC(=O)[C@H](Cc2ccc(O)cc2)NC(=O)[C@@H](N)CSSC[C@@H](C(=O)N2CCC[C@H]2C(=O)N[C@@H](CC(C)C)C(=O)NCC(N)=O)NC(=O)[C@H](CC(N)=O)NC(=O)[C@H]([C@@H](C)O)NC1=O,inactive: -0.95,inactive: -1.9,inactive: -0.614
CN(C)CC/C=C1\c2ccccc2COc2ccccc21 [cidoxepin],–,–,inactive: 0.96
CN(C)CC/C=C1\c2ccccc2COc2ccccc21,inactive: 0.994,inactive: 0.52,–
CN(C)CCCN1c2ccccc2Sc2ccc(Cl)cc21 [Chlorpromazine],–,–,inactive: -0.2
CN(C)CCCN1c2ccccc2Sc2ccc(Cl)cc21 [Chlorpromazine69-09-0],inactive: 1.06,inactive: 1.22,–
CC(=O)/N=c1\sc(S(N)(=O)=O)nn1C [Methazolamide],inactive: -2.16,inactive: 0.949,inactive: 0.512
N#Cc1cccc(CN2CCCCC23Cc2ccccc2CNC3=O)c1 (configuration not stated),inactive: -1.31,inactive: 2.1,–
CCOC(=O)Cn1cccc1-c1nc(-c2ccc(OC)cc2)c(-c2ccc(OC)cc2)s1,inactive: -1.08,inactive: 0.103,inactive: -0.794
CCc1oc2ccccc2c1C(=O)c1cc(Br)c(O)c(Br)c1 [benzbromarone],–,–,inactive: 0.671
CCc1oc2ccccc2c1C(=O)c1cc(Br)c(O)c(Br)c1,inactive: -1.14,inactive: -0.975,–
Nc1nccc2c1ncn2[C@@H]1C=C(CO)[C@@H](O)[C@H]1O,inactive: -0.581,inactive: 2.59,inactive: 2.25
COc1ccc2nc(NC(=O)Nc3ccccc3)sc2c1 [Frentizol],inactive: 2.35,inactive: -0.0107,inactive: -1.22
"Oc1ccc(C=Cc2cc(O)cc(O)c2)cc1 [resveratrol, Royalmount]",inactive: -0.968,inactive: -1.03,inactive: -1.02
CO/N=C(\C(=O)N[C@@H]1C(=O)N2C(C(=O)O)=C(CSC(=O)c3ccco3)CS[C@H]12)c1csc(N)n1 [Ceftiofur],inactive: -0.565,inactive: 1.03,inactive: -0.168
c1ccc(CCCC(Oc2ccccc2OCc2ccccc2)C2=NCCN2)cc1 (configuration not stated),inactive: -1.41,inactive: 0.298,inactive: -1.11
N=C(N)NCCC[C@H](NC(=O)[C@@H]1CCCN1C(=O)[C@@H]1CSSC[C@H](N)C(=O)N[C@@H](Cc2ccc(O)cc2)C(=O)N[C@@H](Cc2ccccc2)C(=O)N[C@@H](CCC(N)=O)C(=O)N[C@@H](CC(N)=O)C(=O)N1)C(=O)O,inactive: -0.56,inactive: -0.549,inactive: 0.283
CNC(=O)c1cccc(-c2ccc3c(N4CCOC[C@@H]4C)nc(N4CCOC[C@@H]4C)nc3n2)c1 [Vistusertib],inactive: -0.584,inactive: -0.48,inactive: -1.37
CC[C@H](C(=O)N1CCCC[C@H]1C(=O)O[C@H](CCc1ccc(OC)c(OC)c1)c1cccc(OCC(=O)NCCNC(=O)COc2cccc([C@@H](CCc3ccc(OC)c(OC)c3)OC(=O)[C@@H]3CCCCN3C(=O)[C@@H](CC)c3cc(OC)c(OC)c(OC)c3)c2)c1)c1cc(OC)c(OC)c(OC)c1 [Rimiducid],inactive: -2.03,inactive: 0.754,inactive: -1.56

Structure (SMILES),TEAD-luciferase reporter activity (compound concentration: 200 nM),TEAD-luciferase reporter activity (compound concentration: 10 uM),TEAD-luciferase reporter activity (compound concentration: 2 uM)
Cc1cc2c(OCC(O)CNC(C)C)cccc2[nH]1 (configuration not stated) [mepindolol],inactive: 1.18,inactive: -0.199,inactive: 1.03
CS(=O)(=O)Nc1ccc(CNc2nc(C(F)(F)F)ccc2-c2cc(Oc3cccc4sc(N)nc34)ncn2)cc1F,inactive: 0.494,inactive: 0.0769,inactive: -0.0349
C[C@@H](Oc1nnc(-c2ccncc2)n1C)c1cc(-c2cccc(Cl)c2)on1,inactive: 0.893,inactive: 0.0384,inactive: -1.52
Cn1cc(-c2cc3c(N4CCN(c5ncc([C@@](C)(N)c6ccc(F)cc6)cn5)CC4)ncnn3c2)cn1 [Avapritinib],inactive: -0.308,inactive: 0.411,inactive: -2.04
COc1ccc2cc(CCC(C)=O)ccc2c1,inactive: 0.0736,inactive: 0.302,–
COc1ccc2cc(CCC(C)=O)ccc2c1 [nabumetone],–,–,inactive: 3.23
CO[C@@H](Cc1ccc(OCCc2nc(-c3ccccc3)oc2C)c2ccsc12)C(=O)O [Aleglitazar],inactive: -0.234,inactive: -0.485,inactive: -0.403
N#Cc1cc2c(OCC(O)CN3CCN(C(c4ccccc4)c4ccccc4)CC3)cccc2[nH]1 (configuration not stated),inactive: -0.769,active: 6.08,inactive: -0.272
Clc1ccccc1C(c1ccccc1)(c1ccccc1)n1ccnc1 [clotrimazole],–,–,inactive: -0.384
Clc1ccccc1C(c1ccccc1)(c1ccccc1)n1ccnc1,inactive: -0.608,inactive: 1.33,–
CCc1cc(NCc2nc3c(C)ccc(C)c3o2)c(=O)[nH]c1C,inactive: -0.668,inactive: 0.325,inactive: -1.4
CCOC(=O)C1(CCCCCCOc2ccc(Cl)cc2)CO1 (configuration not stated) [etomoxir depression therapy],–,–,inactive: -0.469
CCOC(=O)C1(CCCCCCOc2ccc(Cl)cc2)CO1 (configuration not stated),inactive: -1.44,inactive: -0.486,–
CN(C)CC(=O)O,inactive: -0.371,inactive: 0.833,inactive: -1.15
N=C(Nc1ccccc1)c1cccs1,inactive: 0.748,inactive: 0.419,inactive: -1.32
CCOc1cccc2c1[O][Mn]([O]C(C)=O)[O]c1c(cccc1OCC)/C=N/CC/N=C/2,inactive: -0.382,inactive: 1.27,inactive: 0.0844
Clc1ccc(N2N=NCC2c2ccncc2)cc1 (configuration not stated),inactive: -0.956,inactive: 0.869,inactive: -0.669
Nc1ccn([C@@H]2O[C@H](CO)[C@@H](O)[C@H]2O)c(=O)c1,inactive: -0.281,inactive: -1.01,inactive: -2.69
CN1CCN(Cc2ccc(Nc3ncc(Cl)c(Nc4ccccc4S(=O)(=O)N(C)C)n3)cc2)CC1,inactive: 0.44,inactive: -1.44,inactive: -2.22

# Exported with tabs: entries from further up.
Structure (SMILES)	TEAD-luciferase reporter activity (compound concentration: 200 nM)	TEAD-luciferase reporter activity (compound concentration: 10 uM)	TEAD-luciferase reporter activity (compound concentration: 2 uM)
COc1ccc2nc(NC(=O)Nc3ccccc3)sc2c1 [Frentizol]	inactive: 2.35	inactive: -0.0107	inactive: -1.22
CC[C@H](C(=O)N1CCCC[C@H]1C(=O)O[C@H](CCc1ccc(OC)c(OC)c1)c1cccc(OCC(=O)NCCNC(=O)COc2cccc([C@@H](CCc3ccc(OC)c(OC)c3)OC(=O)[C@@H]3CCCCN3C(=O)[C@@H](CC)c3cc(OC)c(OC)c(OC)c3)c2)c1)c1cc(OC)c(OC)c(OC)c1 [Rimiducid]	inactive: -2.03	inactive: 0.754	inactive: -1.56
COc1ccc2cc(CCC(C)=O)ccc2c1 [nabumetone]	–	–	inactive: 3.23
Nc1ccn([C@@H]2O[C@H](CO)[C@@H](O)[C@H]2O)c(=O)c1	inactive: -0.281	inactive: -1.01	inactive: -2.69

# The list continues.

Structure (SMILES),TEAD-luciferase reporter activity (compound concentration: 200 nM),TEAD-luciferase reporter activity (compound concentration: 10 uM),TEAD-luciferase reporter activity (compound concentration: 2 uM)
Cc1cccc(C(=O)Nc2nnn[nH]2)n1,inactive: 1.3,inactive: 0.986,inactive: 1.21
CC1=C(/C=C/C(C)=C/C=C/C(C)=C/CO)C(C)(C)CCC1,inactive: 0.87,inactive: 0.47,inactive: -1.03
Cn1ncnc1[C@H]1c2n[nH]c(=O)c3cc(F)cc(c23)N[C@@H]1c1ccc(F)cc1 [talazoparib],–,–,inactive: -1.04
[O-][n+]1cc[n+]([O-])c2ccccc21,inactive: 2.18,inactive: -0.313,inactive: 0.534
C/N=C(/NC)NCc1ccccc1 [bethanidine],inactive: 0.426,inactive: 0.726,inactive: 1.71
CCCCCCCCCCCCCCCCOC[C@H](COP(=O)([O-])OCC[N+](C)(C)C)OCCCCC(=O)O,inactive: 1.86,inactive: -0.528,inactive: -0.887
CC(CN(C)C)CN1c2ccccc2OCOc2ccc(Cl)cc21 (configuration not stated) [Traboxopine hydrochloride],inactive: 0.42,inactive: 0.629,active: 5.08
Cc1nc(N)ccc1CNC(=O)Cn1c(C)cnc(NCCc2ccccc2)c1=O,inactive: -0.825,inactive: -0.622,inactive: -1.31
CCc1ccc(CN2CCCCC23Cc2ccccc2CNC3=O)cc1 (configuration not stated),inactive: -3.62,inactive: 2.48,–
C[N+](C)(C)[C@H](Cc1c[nH]c(S)n1)C(=O)O [L-(+)-Ergothioneine],inactive: -0.695,inactive: -0.285,–
O=C(Nc1ccc(Cl)c(Cl)c1)C1=C(O)c2cc(Cl)ccc2S(=O)(=O)CC1 [enolicam],inactive: -1.11,inactive: 1.35,inactive: -0.329
C[C@@H](c1ccc(-c2ccn(C)c(=O)c2)cc1)N1CC[C@](CC(C)(C)O)(c2ccccc2)OC1=O,inactive: -1.21,inactive: 0.195,inactive: -1.35
C#CCOC(=O)C1CN=CNC1 (configuration not stated),inactive: -1.64,inactive: 0.0614,active: 5.34
CCC(=O)OCC(=O)[C@@]1(OC(=O)CC)[C@H](C)C[C@H]2[C@H]3[C@H]([C@@H](O)C[C@@]21C)[C@@]1(C)C=CC(=O)C=C1C[C@H]3Cl,inactive: -1.02,inactive: 0.723,inactive: 0.266
C=C1CCC[C@]2(C)C=C3OC(=O)C(C)=C3C[C@@H]12 [Atractylenolide I],inactive: -0.413,inactive: 0.449,inactive: -1.04
COc1ccc(-n2nc(C(F)F)cc2-c2ccc(S(C)=O)cc2)cc1 (configuration not stated),inactive: 0.0581,inactive: 0.0879,inactive: 0.125
COC(=O)C[C@@H](O)C[C@@H](O)/C=C/C=C(c1ccccc1)c1ccccc1,inactive: -0.753,inactive: -2.08,inactive: -1.67
CC(=O)SC[C@@H](Cc1ccc2c(c1)OCO2)C(=O)N[C@@H](C)C(=O)OCc1ccccc1 [Fasidotril],inactive: -0.468,inactive: -0.217,inactive: -0.803
O=C(O)[C@@H](c1ccc(OCc2ccc3ccccc3n2)cc1)C1CCCC1,inactive: -0.23,inactive: -0.234,inactive: -1.41
